According to PMC6138935:
No constants are given. Whether binding was seen depends on the method and setting. Binding seen in cells or lysates may run through a third protein. Some results given as binding are weak or reduced against the parent protein; the word gives no strength.

The chains behind the UniProt entries cited, without tags or fusion partners.
UniProt P10275: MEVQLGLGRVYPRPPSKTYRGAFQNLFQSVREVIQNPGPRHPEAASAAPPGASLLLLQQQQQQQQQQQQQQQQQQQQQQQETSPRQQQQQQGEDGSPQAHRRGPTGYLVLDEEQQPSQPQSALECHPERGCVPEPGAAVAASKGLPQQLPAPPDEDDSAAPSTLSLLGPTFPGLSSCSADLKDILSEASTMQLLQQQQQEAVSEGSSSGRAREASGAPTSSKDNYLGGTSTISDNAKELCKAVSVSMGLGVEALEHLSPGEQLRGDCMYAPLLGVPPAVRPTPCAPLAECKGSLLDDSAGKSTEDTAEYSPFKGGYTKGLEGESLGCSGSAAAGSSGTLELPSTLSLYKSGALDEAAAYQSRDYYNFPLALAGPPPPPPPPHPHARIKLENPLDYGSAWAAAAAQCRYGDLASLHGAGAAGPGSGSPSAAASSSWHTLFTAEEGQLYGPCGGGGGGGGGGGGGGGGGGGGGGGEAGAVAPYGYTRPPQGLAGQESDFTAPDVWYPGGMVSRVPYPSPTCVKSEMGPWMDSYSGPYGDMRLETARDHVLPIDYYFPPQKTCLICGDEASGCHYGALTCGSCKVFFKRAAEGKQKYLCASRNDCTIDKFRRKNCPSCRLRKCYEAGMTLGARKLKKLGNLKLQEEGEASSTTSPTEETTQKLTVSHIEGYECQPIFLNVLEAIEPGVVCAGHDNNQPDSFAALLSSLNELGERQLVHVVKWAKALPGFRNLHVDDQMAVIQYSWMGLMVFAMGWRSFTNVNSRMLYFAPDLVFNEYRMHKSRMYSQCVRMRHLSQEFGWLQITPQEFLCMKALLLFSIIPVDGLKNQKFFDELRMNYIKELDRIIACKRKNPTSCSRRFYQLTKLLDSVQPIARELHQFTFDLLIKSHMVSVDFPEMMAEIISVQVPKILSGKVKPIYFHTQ
UniProt P01106: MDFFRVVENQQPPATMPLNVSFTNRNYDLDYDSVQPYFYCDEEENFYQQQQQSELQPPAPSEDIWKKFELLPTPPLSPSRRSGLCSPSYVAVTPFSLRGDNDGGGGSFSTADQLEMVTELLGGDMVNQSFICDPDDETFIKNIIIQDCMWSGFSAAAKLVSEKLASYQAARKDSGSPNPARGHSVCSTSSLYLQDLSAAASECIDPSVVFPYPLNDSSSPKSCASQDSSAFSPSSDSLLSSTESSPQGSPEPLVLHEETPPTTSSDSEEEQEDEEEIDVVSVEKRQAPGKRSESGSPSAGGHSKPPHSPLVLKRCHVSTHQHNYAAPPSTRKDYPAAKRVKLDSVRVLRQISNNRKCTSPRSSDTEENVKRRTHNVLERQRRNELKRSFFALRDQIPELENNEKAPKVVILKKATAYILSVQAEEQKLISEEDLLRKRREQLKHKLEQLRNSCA

T1: Prostate-derived Ets factor, overexpressed from a lentiviral vector in SKBR-3 cells (UniProt O95238)
T1 sequence: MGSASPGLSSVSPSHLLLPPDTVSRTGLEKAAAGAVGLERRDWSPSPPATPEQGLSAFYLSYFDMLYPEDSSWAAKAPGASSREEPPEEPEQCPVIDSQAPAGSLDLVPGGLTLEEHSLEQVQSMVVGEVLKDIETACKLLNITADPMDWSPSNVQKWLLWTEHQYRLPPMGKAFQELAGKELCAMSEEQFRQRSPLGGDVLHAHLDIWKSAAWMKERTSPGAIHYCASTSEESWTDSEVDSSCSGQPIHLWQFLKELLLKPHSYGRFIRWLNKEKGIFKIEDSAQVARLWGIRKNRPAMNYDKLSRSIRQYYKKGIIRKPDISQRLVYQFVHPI


What was measured:
[1] = biological target: T1, Prostate-derived Ets factor, overexpressed from a lentiviral vector in SKBR-3 cells; assay: co-IP; anti-PDEF antibody (ab53881) covalently coupled to resin (Pierce Co-IP kit), incubated with cell lysates overnight at 4 °C, western blot; PDEF-overexpressing SKBR-3 cells and control vector-infected cells
[2] = biological target: Androgen receptor (human (endogenous in MDA-MB-453 and SKBR-3)) (UniProt P10275); assay: co-IP; anti-AR antibody (ab9474) covalently coupled to resin (Pierce Co-IP kit), incubated with cell lysates overnight at 4 °C, western blot; MDA-MB-453 and SKBR-3 cells treated with 1 nM DHT for 48 h, and control cells

Row | Molecule | binding [1] | binding [2]
1 | MYC (from UniProt P01106 1-454) | no binding | 
2 | Prostate-derived Ets factor (protein, UniProt O95238 1-335) MGSASPGLSSVSPSHLLLPPDTVSRTGLEKAAAGAVGLERRDWSPSPPATPEQGLSAFYLSYFDMLYPEDSSWAAKAPGASSREEPPEEPEQCPVIDSQAPAGSLDLVPGGLTLEEHSLEQVQSMVVGEVLKDIETACKLLNITADPMDWSPSNVQKWLLWTEHQYRLPPMGKAFQELAGKELCAMSEEQFRQRSPLGGDVLHAHLDIWKSAAWMKERTSPGAIHYCASTSEESWTDSEVDSSCSGQPIHLWQFLKELLLKPHSYGRFIRWLNKEKGIFKIEDSAQVARLWGIRKNRPAMNYDKLSRSIRQYYKKGIIRKPDISQRLVYQFVHPI |  | binds
